# Experimental data: PubChem BioAssay AID1508600 (Functional Genomics Laboratory (NCATS/FGL), 2020)
# Screen size: about 53,000 sequences; about 3,700 (7%) were called active.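 How the source made its calls: active means gene knockdowns whose robust z-score for IL-1 alpha signal is at least 2 or at most -2, so actives lie on both sides; inactive means the rest.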 Some of the results follow.
# Test: Components of the Cytosolic LPS Sensing Pathway: Gene Identification via Genome-wide siRNA Screen
# Details: RAW264.7 macrophages, IL-1a HTRF, actives lie on both sides, screened at 100 nM (by protocol), cells primed 5 h with Pam3CSK4 first
# From the text: Non-canonical inflammasome activation by cytosolic LPS is a critical component of the host response to Gram-negative bacterial infection, however we lack a comprehensive understanding of the cellular processes that control this pathway. Here we describe a genome-wide siRNA screen to identify genes regulating the mouse macrophage IL-1 alpha response to cytosolic LPS.
# RAW264.7 cells were maintained in complete DMEM media, comprising DMEM with 4.5 g/L glucose, 10% FBS (Gemini Bio-Products, West Sacramento, CA), 2 mM Glutamine (Lonza) and 20 mM HEPES (Lonza), hereafter complete DMEM.
# The RNAi screen was conducted in 384-well format using the Ambion Silencer Mouse Genome siRNA Library (#4391425), which consists of three unique, nonoverlapping, nonpooled siRNAs for each of 17,000 gene targets. siRNA reagents ([…]) were stamped into 384-well white flat-bottom microplates (Corning, 3570) using a Velocity11 VPrep liquid handling system (Agilent) integrated into a BioCel robotic platform (Agilent) in columns 1-22, leaving columns 23-24 empty for negative (Ambion, Negative control #1) and positive (mouse Casp4) controls, respectively. The median value of each plate's negative control column was used to normalize sample wells, and the positive control was used to assess transfection efficiency and assay performance.
# Lipofectamine RNAiMAX Transfection Reagent ([…]; Invitrogen) was added in […] serum-free, antibiotic-free media to plate wells using a Thermo Scientific Matrix WellMate and Microplate Stacker. Plates were incubated for 45 min at room temperature to allow for the sufficient formation of siRNA-lipid complexes. Cells were seeded at a density of 1x10^4 cells per well in 20 microL media containing 20% (vol/vol) FBS without antibiotics. The final concentration of siRNA in each well was 100 nM. Cells were cultured for 48h at 37 degrees C in 5% CO2 before addition of […] of TLR ligand Pam3CSK4 for 5 hours. The medium was then removed, replaced with […] growth media and cell were transfected with […] of LipidA and TransIT-TKO (Mirus) for 24 hour. At the end of the LipidA treatment, […] of supernatant was transferred to a 384 Greiner Bio-one non-binding low volume plate and […] of IL-1a HTRF reagent (Cisbio, 62MIL1APEH) was added and incubated at room temperature overnight. The plates were read on an EnVision plate reader (PerkinElmer). Cell viability was measured by adding 20ul Cell Titer Glo to the original plate and running a luminescence read on the EnVision. The quantified IL-1a signal for each siRNA gene-targeted well was divided by the median of the negative control wells and multiplied by 100 to achieve a negative control normalized value for each well/siRNA. This normalized value was then used to generate a robust z-score by first taking the log of each value and then by subtracting the median and dividing by the […].
row,Sequence,z-score
1,CCAAGAGAUCCUUAUUAAATT against Necap2,inactive: -0.215
2,GGUGGAAGCUAGAAACCUATT against Cpne1,inactive: 0.57
3,AAGAGCCAUUAAUCGAGAATT against Cklf,inactive: -0.0691
4,GGGAAAAGCAAACACUAAUTT against C1d,inactive: -1.84
5,GGCCAGGAAAGAUUUCGAATT against Rab1a,inactive: 0.0539
6,GGGUGGUGACCCUAAAACUTT against Zfp819,inactive: 0.931
7,GGCACUCCUGAUGUUCUCUTT against Cyb561d2,active: -2.96
8,CCAGUUCAGAGAUUAUCUUTT against Olfr826,active: -2.13
9,CCAUAGGUUUCGGCAUGACTT against Kcnk12,inactive: -0.107
10,GGUUUUUAUACUCUGGGAUTT against Elavl1,inactive: 1.1
11,CCUCAUCAAGACCUACAAGTT against Dyrk1b,inactive: 1.88
12,GCUAGCUAAUCCUUGUUUATT against Golm2,inactive: 0.496
13,GGAUAUGCUGUGAAGUAUUTT against Plekhf2,inactive: 1.68
14,GCUAAGCUAAAUUAAAUGCTT against Rp2,inactive: 0.258
15,GGGAUGCUUUGUUGCUGUUTT against Olfr836,inactive: 0.296
16,CGCGUAGAUAAGAAGUAUUTT against Anks1,inactive: 0.181
17,GCCCUGAACUACCUAGAAATT against Alg5,inactive: 1.58
18,CCAAGUUCUCAUGGUUCUGTT against Serpina3k,inactive: -0.302
19,GGAGAGCUCCUAUAAUCCUTT against Plau,inactive: 0.267
20,GGAAUUCAAAACCUUCUAUTT against Rai14,inactive: -0.521
21,GGCAUCUCCACCUUUUCAUTT against Abcc9,inactive: -0.833
22,CCAUCAAUUUGGAGACUAUTT against Cav1,inactive: 0.212
23,GGAACAUGUUUAUAUGGUATT against Iigp1,inactive: 0.355

row,Sequence,z-score
1,GGAAUUGUCUAAAUUGGCUTT against Hoxd1,inactive: -1.19
2,GGGAUUUACACUCACUCCUTT against Tle2,inactive: -0.406
3,CGGUGGAAAUACCAGGAUGTT against Tshb,inactive: 0.406
4,GGUAGUUAACACAAAAUUGTT against 4932438H23Rik,inactive: 0.334
5,GGAGUCCCAAACCUUCUCATT against Spata3,inactive: -1.8
6,GGGAAGGACUGUAAGAAAATT against Dipk1a,inactive: -0.252
7,GGACUUUGCCCUGGAUUCUTT against Cnot1,inactive: -0.216
8,CCUGGUAUACGUUUACAAUTT against Lama4,inactive: 0.773
9,GCGAACCCUAAGUAAGAAGTT against U2surp,inactive: -0.989
10,GGUUGCUGUGUUGAAGAAATT against Ttbk2,inactive: 0.446
11,GCUAUUAAUAUCCUGGUCCTT against Slc7a2,inactive: -0.543
12,GGAUUGAAGUCCCUUUACUTT against Zdhhc16,active: 2.27
13,GCCCACCAUGUCGUAUGUGTT against Hils1,inactive: -0.846
14,GGCCGCAUACUGAUGAAAGTT against Scgn,inactive: -0.395
15,GGAACAGCAAACUGAAAACTT against Chia1,inactive: 0.216
16,GCAUACAAUCAUGUAAGAGTT against Adprh,inactive: 0.0994
17,GCCUAGCAUUCUUGUGCAATT against 1700093K21Rik,inactive: 0.883
18,GGACCGAGUACACCAUGAGTT against Calu,inactive: -1.02
19,GGACUUCAUGGCUAGUUUCTT against B4galt4,inactive: -0.14
20,GCACCGACCACCAAAUCUATT against Prol1,inactive: 0.65
21,GGAGUUUGACCGGAAGUACTT against Arhgap8,inactive: -2
22,GCACAUACAGAGCUCGUCUTT against Zkscan6,inactive: -0.471
23,GGUUUUUGAAUUCCAGUUGTT against Akr1c14,inactive: 0.571

# Fetched one by one from the entries so far (three):
row,Sequence,z-score
11,GCUAUUAAUAUCCUGGUCCTT against Slc7a2,inactive: -0.543
12,GGAUUGAAGUCCCUUUACUTT against Zdhhc16,active: 2.27
3,CGGUGGAAAUACCAGGAUGTT against Tshb,inactive: 0.406

# Remaining list, next part:

row,Sequence,z-score
1,GGAUUGAAGAGAAUUUACCTT against C2cd5,inactive: 0.445
2,GCUAUUCGGCUAAAGCAGCTT against Etfdh,inactive: -0.285
3,GCCAUGCUAGUCUUAGAAATT against Zfp781,inactive: -1.66
4,GCCCAUGGAUACUACUUCATT against Syncrip,inactive: 0.411
5,GAGAGAGGGAAUUUGCUCCTT against Pcdhb8,active: 2.6
6,GGUCAGUCAUUUUUCACUUTT against Zpld1,inactive: -0.0758
7,GGCAUUGUGAUUCUUUGUCTT against Tal1,inactive: -0.39
8,GGAGUCAGUGAGGUACAUUTT against Emc1,inactive: 1.91
9,GGAAAAAACGCACCAGCAUTT against Pou2f1,inactive: 0.0271
10,GGGCCAAUAUGUUUGAGUATT against Fam83g,inactive: 0.978
11,CCUGUCUUUCUUUGAUCAATT against Tspan8,inactive: 1.14
12,CCUGAUCUCAGCCUAUACUTT against Rapgef6,active: -2.26
13,GGUCCUUGGAGAAGAUAUUTT against Tmem234,inactive: -0.686
14,GGUACGAAAAAUUCCUACGTT against Ang4,inactive: 1.48
15,GGAAGGUCUUCGAGAUUUUTT against Gpr75,active: 4.56
16,GGGUUCUGUUGACUAACUATT against Ube2k,inactive: 1.12
17,CGUGUAGGCAGAAUAGUUATT against Ankrd16,inactive: -1.11
18,GACUAACCAGAUGAAAGUCTT against Vmn1r11,inactive: -0.66
19,CCCAACUUCCGAAAGCUGUTT against Slc6a1,inactive: -0.518
20,GGAUCAUACAAUAUCCUUUTT against Olfr466,inactive: 0.227
21,GCCGCUUUCAUUAAGGCUGTT against Pdcd10,inactive: 0.835
22,GGCUGGGAAAAAAAAAGAATT against Ifi205,inactive: 0.704
